The source of these data is publication PMC11189303.

The chains behind the UniProt entries cited, without tags or fusion partners.
UniProt O60826: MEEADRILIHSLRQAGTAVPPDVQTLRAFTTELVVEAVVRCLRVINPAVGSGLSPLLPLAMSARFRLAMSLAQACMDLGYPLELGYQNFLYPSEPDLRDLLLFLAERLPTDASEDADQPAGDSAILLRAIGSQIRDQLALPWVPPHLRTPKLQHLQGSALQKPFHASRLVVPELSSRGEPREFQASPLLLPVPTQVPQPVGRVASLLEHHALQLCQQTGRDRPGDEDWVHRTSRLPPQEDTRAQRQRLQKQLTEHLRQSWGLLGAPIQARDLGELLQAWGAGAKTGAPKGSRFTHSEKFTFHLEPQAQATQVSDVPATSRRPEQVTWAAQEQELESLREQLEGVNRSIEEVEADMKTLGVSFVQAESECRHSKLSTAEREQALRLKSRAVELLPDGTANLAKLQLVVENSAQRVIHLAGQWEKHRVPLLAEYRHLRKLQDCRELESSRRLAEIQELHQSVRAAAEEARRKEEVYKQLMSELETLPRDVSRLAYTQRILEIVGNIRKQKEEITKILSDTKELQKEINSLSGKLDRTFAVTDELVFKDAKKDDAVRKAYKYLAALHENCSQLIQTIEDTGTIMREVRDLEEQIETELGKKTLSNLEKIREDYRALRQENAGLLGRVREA
UniProt Q8TCE6: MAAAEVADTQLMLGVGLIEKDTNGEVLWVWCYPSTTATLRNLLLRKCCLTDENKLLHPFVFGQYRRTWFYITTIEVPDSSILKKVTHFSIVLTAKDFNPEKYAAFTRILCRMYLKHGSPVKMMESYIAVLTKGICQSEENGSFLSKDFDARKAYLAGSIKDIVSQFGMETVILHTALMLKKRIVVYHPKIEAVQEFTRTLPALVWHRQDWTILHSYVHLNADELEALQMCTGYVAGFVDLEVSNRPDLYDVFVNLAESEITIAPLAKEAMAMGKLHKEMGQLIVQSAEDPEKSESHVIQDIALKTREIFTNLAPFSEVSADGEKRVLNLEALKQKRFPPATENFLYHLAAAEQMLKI

Results are given in words; binding and its absence hold for the method and conditions named. Binding seen in cells or lysates may run through a third protein. These calls come from enrichment with a bait or labelling near it, and not all partners need be listed.

The target in assay [1] is VPS35L (human) (UniProt Q7Z3J2). The assay can be described thus: proximity labelling; BioID–MS: MAC-tagged (BirA*) bait in Flp-In T-REx 293, tetracycline and 50 μM biotin 24 h; lysis with 0.1% SDS and benzonase, Strep-Tactin beads; high-confidence interactions by SAINTexpress and CRAPome.
The target in assay [2] is VPS26C (human) (UniProt O14972). The assay is described as above.
Assay [3] deals with CCDC22 (human) (UniProt O60826). Put plainly: affinity purification with mass spectrometry; MAC-tagged bait stably expressed in Flp-In T-REx 293 (tetracycline 24 h); cleared lysate (50 mM HEPES pH 8.0, 150 mM NaCl, 0.5% IGEPAL) on Strep-Tactin beads, eluted with biotin; high-confidence interactions by SAINTexpress (BFDR < 0.05) and CRAPome against MAC-tagged GFP controls.
The target is the same in assay [4]. The assay can be described thus: proximity labelling; BioID–MS: MAC-tagged (BirA*) bait in Flp-In T-REx 293, tetracycline and 50 μM biotin 24 h; lysis with 0.1% SDS and benzonase, Strep-Tactin beads; high-confidence interactions by SAINTexpress and CRAPome.
Assay [5] concerns the target DENN domain-containing protein 10 (human) (UniProt Q8TCE6). Described as above.

B1: UBL4A (protein, UniProt P11441 1-157)
chain: MQLTVKALQGRECSLQVPEDELVSTLKQLVSEKLNVPVRQQRLLFKGKALADGKRLSDYSIGPNSKLNLVVKPLEKVLLEEGEAQRLADSPPPQVWQLISKVLARHFSAADASRVLEQLQRDYERSLSRLTLDDIERLASRFLHPEVTETMEKGFSK
Turning to B1, the binding result in assay [1] is “binds”.

B2: TMED5 (protein, UniProt Q9Y3A6 28-229)
chain: FTPSLDSDFTFTLPAGQKECFYQPMPLKASLEIEYQVLDGAGLDIDFHLASPEGKTLVFEQRKSDGVHTVETEVGDYMFCFDNTFSTISEKVIFFELILDNMGEQAQEQEDWKKYITGTDILDMKLEDILESINSIKSRLSKSGHIQTLLRAFEARDRNIQESNFDRVNFWSMVNLVVMVVVSAIQVYMLKSLFEDKRKSRT
For the molecule B2, in assay [1], the binding result is reported as “binds”.

B3: F-actin capping protein CAPZA3 (protein, UniProt Q96KX2 1-299)
chain: MTLSVLSRKDKERVIRRLLLQAPPGEFVNAFDDLCLLIRDEKLMHHQGECAGHQHCQKYSVPLCIDGNPVLLSHHNVMGDYRFFDHQSKLSFKYDLLQNQLKDIQSHGIIQNEAEYLRVVLLCALKLYVNDHYPKGNCNMLRKTVKSKEYLIACIEDHNYETGECWNGLWKSKWIFQVNPFLTQVTGRIFVQAHFFRCVNLHIEISKDLKESLEIVNQAQLALSFARLVEEQENKFQAAVLEELQELSNEALRKILRRDLPVTRTLIDWHRILSDLNLVMYPKLGYVIYSRSVLCNWII
With B3, in assay [2], the binding entry is “binds”.

B4: HAUS5 (protein, UniProt O94927 1-633)
chain: MELAQEARELGCWAVEEMGVPVAARAPESTLRRLCLGQGADIWAYILQHVHSQRTVKKIRGNLLWYGHQDSPQVRRKLELEAAVTRLRAEIQELDQSLELMERDTEAQDTAMEQARQHTQDTQRRALLLRAQAGAMRRQQHTLRDPMQRLQNQLRRLQDMERKAKVDVTFGSLTSAALGLEPVVLRDVRTACTLRAQFLQNLLLPQAKRGSLPTPHDDHFGTSYQQWLSSVETLLTNHPPGHVLAALEHLAAEREAEIRSLCSGDGLGDTEISRPQAPDQSDSSQTLPSMVHLIQEGWRTVGVLVSQRSTLLKERQVLTQRLQGLVEEVERRVLGSSERQVLILGLRRCCLWTELKALHDQSQELQDAAGHRQLLLRELQAKQQRILHWRQLVEETQEQVRLLIKGNSASKTRLCRSPGEVLALVQRKVVPTFEAVAPQSRELLRCLEEEVRHLPHILLGTLLRHRPGELKPLPTVLPSIHQLHPASPRGSSFIALSHKLGLPPGKASELLLPAAASLRQDLLLLQDQRSLWCWDLLHMKTSLPPGLPTQELLQIQASQEKQQKENLGQALKRLEKLLKQALERIPELQGIVGDWWEQPGQAALSEELCQGLSLPQWRLRWVQAQGALQKLCS
Regarding B4, in assay [3], the binding entry was “binds”.

B5: HAUS1 (protein, UniProt Q96CS2 1-278)
chain: MEPQEERETQVAAWLKKIFGDHPIPQYEVNPRTTEILHHLSERNRVRDRDVYLVIEDLKQKASEYESEAKYLQDLLMESVNFSPANLSSTGSRYLNALVDSAVALETKDTSLASFIPAVNDLTSDLFRTKSKSEEIKIELEKLEKNLTATLVLEKCLQEDVKKAELHLSTERAKVDNRRQNMDFLKAKSEEFRFGIKAAEEQLSARGMDASLSHQSLVALSEKLARLKQQTIPLKKKLESYLDLMPNPSLAQVKIEEAKRELDSIEAELTRRVDMMEL
Consider B5, for which the binding entry in assay [3] is given as “binds”.

B6: TTLL5 (protein, UniProt Q6EMB2 1-1281)
chain: MPIVMARDLEETASSSEDEEVISQEDHPCIMWTGGCRRIPVLVFHADAILTKDNNIRVIGERYHLSYKIVRTDSRLVRSILTAHGFHEVHPSSTDYNLMWTGSHLKPFLLRTLSEAQKVNHFPRSYELTRKDRLYKNIIRMQHTHGFKAFHILPQTFLLPAEYAEFCNSYSKDRGPWIVKPVASSRGRGVYLINNPNQISLEENILVSRYINNPLLIDDFKFDVRLYVLVTSYDPLVIYLYEEGLARFATVRYDQGAKNIRNQFMHLTNYSVNKKSGDYVSCDDPEVEDYGNKWSMSAMLRYLKQEGRDTTALMAHVEDLIIKTIISAELAIATACKTFVPHRSSCFELYGFDVLIDSTLKPWLLEVNLSPSLACDAPLDLKIKASMISDMFTVVGFVCQDPAQRASTRPIYPTFESSRRNPFQKPQRCRPLSASDAEMKNLVGSAREKGPGKLGGSVLGLSMEEIKVLRRVKEENDRRGGFIRIFPTSETWEIYGSYLEHKTSMNYMLATRLFQDRMTADGAPELKIESLNSKAKLHAALYERKLLSLEVRKRRRRSSRLRAMRPKYPVITQPAEMNVKTETESEEEEEVALDNEDEEQEASQEESAGFLRENQAKYTPSLTALVENTPKENSMKVREWNNKGGHCCKLETQELEPKFNLMQILQDNGNLSKMQARIAFSAYLQHVQIRLMKDSGGQTFSASWAAKEDEQMELVVRFLKRASNNLQHSLRMVLPSRRLALLERRRILAHQLGDFIIVYNKETEQMAEKKSKKKVEEEEEDGVNMENFQEFIRQASEAELEEVLTFYTQKNKSASVFLGTHSKISKNNNNYSDSGAKGDHPETIMEEVKIKPPKQQQTTEIHSDKLSRFTTSAEKEAKLVYSNSSSGPTATLQKIPNTHLSSVTTSDLSPGPCHHSSLSQIPSAIPSMPHQPTILLNTVSASASPCLHPGAQNIPSPTGLPRCRSGSHTIGPFSSFQSAAHIYSQKLSRPSSAKAGSCYLNKHHSGIAKTQKEGEDASLYSKRYNQSMVTAELQRLAEKQAARQYSPSSHINLLTQQVTNLNLATGIINRSSASAPPTLRPIISPSGPTWSTQSDPQAPENHSSSPGSRSLQTGGFAWEGEVENNVYSQATGVVPQHKYHPTAGSYQLQFALQQLEQQKLQSRQLLDQSRARHQAIFGSQTLPNSNLWTMNNGAGCRISSATASGQKPTTLPQKVVPPPSSCASLVPKPPPNHEQVLRRATSQKASKGSSAEGQLNGLQSSLNPAAFVPITSSTDPAHTKI
B6: the binding entry in assay [4] was “binds”.

B7: endosomal transport protein FKBP15 (protein, UniProt Q5T1M5 1-1219)
chain: MFGAGDEDDTDFLSPSGGARLASLFGLDQAAAGHGNEFFQYTAPKQPKKGQGTAATGNQATPKTAPATMSTPTILVATAVHAYRYTNGQYVKQGKFGAAVLGNHTAREYRILLYISQQQPVTVARIHVNFELMVRPNNYSTFYDDQRQNWSIMFESEKAAVEFNKQVCIAKCNSTSSLDAVLSQDLIVADGPAVEVGDSLEVAYTGWLFQNHVLGQVFDSTANKDKLLRLKLGSGKVIKGWEDGMLGMKKGGKRLLIVPPACAVGSEGVIGWTQATDSILVFEVEVRRVKFARDSGSDGHSVSSRDSAAPSPIPGADNLSADPVVSPPTSIPFKSGEPALRTKSNSLSEQLAINTSPDAVKAKLISRMAKMGQPMLPILPPQLDSNDSEIEDVNTLQGGGQPVVTPSVQPSLHPAHPALPQMTSQAPQPSVTGLQAPSAALMQVSSLDSHSAVSGNAQSFQPYAGMQAYAYPQASAVTSQLQPVRPLYPAPLSQPPHFQGSGDMASFLMTEARQHNTEIRMAVSKVADKMDHLMTKVEELQKHSAGNSMLIPSMSVTMETSMIMSNIQRIIQENERLKQEILEKSNRIEEQNDKISELIERNQRYVEQSNLMMEKRNNSLQTATENTQARVLHAEQEKAKVTEELAAATAQVSHLQLKMTAHQKKETELQMQLTESLKETDLLRGQLTKVQAKLSELQETSEQAQSKFKSEKQNRKQLELKVTSLEEELTDLRVEKESLEKNLSERKKKSAQERSQAEEEIDEIRKSYQEELDKLRQLLKKTRVSTDQAAAEQLSLVQAELQTQWEAKCEHLLASAKDEHLQQYQEVCAQRDAYQQKLVQLQEKCLALQAQITALTKQNEQHIKELEKNKSQMSGVEAAASDPSEKVKKIMNQVFQSLRREFELEESYNGRTILGTIMNTIKMVTLQLLNQQEQEKEESSSEEEEEKAEERPRRPSQEQSASASSGQPQAPLNRERPESPMVPSEQVVEEAVPLPPQALTTSQDGHRRKGDSEAEALSEIKDGSLPPELSCIPSHRVLGPPTSIPPEPLGPVSMDSECEESLAASPMAAKPDNPSGKVCVREVAPDGPLQESSTRLSLTSDPEEGDPLALGPESPGEPQPPQLKKDDVTSSTGPHKELSSTEAGSTVAGAALRPSHHSQRSSLSGDEEDELFKGATLKALRPKAQPEEEDEDEVSMKGRPPPTPLFGDDDDDDDIDWLG
For B7, the binding entry in assay [4] and in assay [5] was “binds” each time.
